A short description of the data set: general procedure: peptide synthesis; DECP/DIPEA.

Under “late stage modification step”, Glu-PEG4-TATE showed a step yield of 68%.
Take “NOTA-Bn-p-SCN-PEG4-Glu{PEG4-Cyclo[Arg-Gly-Asp-(D-Tyr)-Lys]}-PEG4-(D-Phe)-Cys-Tyr-(D-Trp)-Lys-Thr-Cys-Thr”: under “conjugation step”, the conjugation yield was 13.5% and the “final purity (method not given)” value is on record as “more than 97%”.
